PubChem BioAssay AID1259424 – University of Nebraska Medical Center | 2018
Screen: 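Rank knockdowns across the genome by resemblance to the KSR1 depletion profile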 (primary screen). Cells: human HCT116 colon cancer cells. Reagents: siRNA pool against human genes, 50 nM. Detection: 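Six signature mRNAs by branched-DNA multiplex assay, scaled to two housekeeping genes and non-targeting median, log2; matched to mean KSR1 knockdown profile by Pearson correlation and euclidean distance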. Scale: mean correlation with KSR1 profile: higher = expression change more like KSR1 knockdown; mean distance from KSR1 profile: higher = expression change less like KSR1 knockdown.
The whole screen tested about 14,000 reagents; below is a random part of them. 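Higher correlation or smaller distance means closer resemblance to KSR1 loss; control wells, including KSR1 knockdowns, recur on many plates.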 Not all columns of the deposit are shown. Not given: the time to read-out.

Target gene	mean correlation with KSR1 profile	mean distance from KSR1 profile
HDAC10 (histone deacetylase 10)	-0.0665	1.86
DUSP12 (dual specificity phosphatase 12)	-0.0712	1.34
LTV1 (LTV1 ribosome biogenesis factor)	0.171	1.92
PHF19 (PHD finger protein 19)	0.0384	3.69
PHACTR2 (phosphatase and actin regulator 2)	-0.678	2.32
BMP5 (bone morphogenetic protein 5)	-0.36	1.78
ERLIN2 (ER lipid raft associated 2)	0.14	0.983
MALL (mal, T cell differentiation protein like)	0.0948	1.11
KIF9 (kinesin family member 9)	-0.0272	1.31
ARHGAP29 (Rho GTPase activating protein 29)	-0.202	2.18
ZNF17 (zinc finger protein 17)	0.0447	2.2
NBR1 (NBR1 autophagy cargo receptor)	0.521	2.15

3 entries from above, arranged by “mean distance from KSR1 profile”, highest first.
Target gene	mean correlation with KSR1 profile	mean distance from KSR1 profile
ARHGAP29 (Rho GTPase activating protein 29)	-0.202	2.18
KIF9 (kinesin family member 9)	-0.0272	1.31
MALL (mal, T cell differentiation protein like)	0.0948	1.11

Additional records follow:
Target gene	mean correlation with KSR1 profile	mean distance from KSR1 profile
YJU2B (YJU2 splicing factor homolog B)	0.568	3.94
IL24 (interleukin 24)	-0.169	1.44
MS4A2 (membrane spanning 4-domains A2)	0.691	2.29
DOCK5 (dedicator of cytokinesis 5)	0.0489	1.87
STON1 (stonin 1)	-0.382	2.13
ZNF85 (zinc finger protein 85)	-0.473	2.34
RNH1 (ribonuclease/angiogenin inhibitor 1)	-0.107	1.58
KLK5 (kallikrein related peptidase 5)	-0.567	3.09
